Test results: patent US20160257751A1 (SORRENTO THERAPEUTICS, published 2016)
No constants are given. Whether binding was seen depends on the method and setting. Some binding calls cover weakened binding; strength is not graded here.

The chains behind the UniProt entries cited, without tags or fusion partners. Residues count along the entry.
UniProt Q08722, residues 19-139: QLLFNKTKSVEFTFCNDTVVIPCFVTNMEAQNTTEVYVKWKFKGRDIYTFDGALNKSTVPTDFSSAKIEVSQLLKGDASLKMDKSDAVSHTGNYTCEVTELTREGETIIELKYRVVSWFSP

Experiments:
human CD47 [1] = target: T1, human CD47 (human, UniProt Q08722 19-139, limits assumed, biotinylated in the ELISAs (site not stated)); assay: ELISA, antibody captured on goat anti-lambda, biotinylated CD47, neutravidin-AP detection
T1 construct: also called biotinylated CD47; CD47 receptor

human CD47 [2] = target: T1, human CD47; assay: ELISA: antibody at 1 ug/ml captured on goat anti-lambda antibody; serially diluted biotinylated CD47, then neutravidin-AP; PNPP absorbance
human CD47 [3] = target: T1, human CD47; assay: affinity screen of CDR variants and combinatorial library, relative to C47B10-1

Measured: binding

B1: C47B10-1F6S (antibody, V domains shown)
VH: QVQLVQSGAEVKKPGASVKVSCKASGYTFTSYYMHWVRQAPGQGLEWMGIINPSGGSTSYAQKFQGRVTMTRDTSTSTVYMELSSLRSEDTAVYYCARSTLWFSEFDYWGQGTLVTVSS
VL: QSALTQPASVSGSPGQSISISCTGTSSDVGGHNYVSWYQQHPGKAPKLMIYDVRNRPSGVSNRFSGSKSGSTASLTISGLQTEDEADYYCLSYTGSRTYVFGSGTKLTVL
binds: all assays above
